## Microarray screen: hit calls

From ROBIN, a set of small-molecule microarray screens (doi:10.1002/anie.202211358).

Targets (5′ to 3′):
PreQ1: PreQ1 riboswitch RNA pseudoknot, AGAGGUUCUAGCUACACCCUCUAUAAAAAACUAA. From B. subtilis. About 24,000 compounds screened, about 170 hits.
TPP: TPP riboswitch RNA three-way junction, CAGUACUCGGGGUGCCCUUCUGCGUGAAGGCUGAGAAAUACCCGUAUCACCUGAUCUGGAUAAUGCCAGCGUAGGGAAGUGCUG. About 24,000 compounds screened, about 160 hits.
SAM-II: SAM-II riboswitch RNA pseudoknot, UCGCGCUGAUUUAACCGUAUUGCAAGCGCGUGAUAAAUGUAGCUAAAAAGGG. About 21,000 compounds screened, about 200 hits.

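The test is a small-molecule microarray: each compound is printed twice on a reactive slide, and binding shows as fluorescence of the labelled oligonucleotide after washing. For the PreQ1, TPP and SAM-II riboswitches the laboratory earlier reported (doi:10.1038/s41467-019-09493-3) 1 µM RNA, 2 h, and a rule that included a mean Z-score above 3 (spot signal-to-noise against the whole library), a score well above that on a control array, and duplicate spots agreeing (coefficient of variation under 100). The data file gives only the calls; its cut-offs may differ, and compounds hitting several targets are kept. The calls come from the array alone, and fixing a compound to the slide can hide its binding.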
Key: hit = hit, no hit = tested without a hit.
The compounds are a random part of those screened.
A target missing from an entry has no call listed here.

Calls for O=C(c1cccc(-n2cccn2)c1)N1[C@H]2CCNC[C@@H]1CC2 are PreQ1: no hit; TPP: no hit; SAM-II: no hit.
Calls for Cc1ccc(CN2CCN(c3nccc(N4CCC(O)CC4)n3)CC2=O)cc1 are PreQ1: no hit; TPP: no hit; SAM-II: no hit.
Calls for Cc1ccc(Nc2nc(C)cc(N3CCN(C(=O)c4ccc5c(c4)OCO5)CC3)n2)cc1 are PreQ1: no hit; TPP: no hit.
Calls for Cc1ccc2cc(C3(O)CCN(C(=O)c4sccc4N)CC3)ccc2n1 are PreQ1: no hit; TPP: no hit; SAM-II: no hit.
Calls for CCCCn1cnc2cc(NCc3cccc(OC)c3OC)ccc21 are PreQ1: no hit; TPP: no hit; SAM-II: no hit.
Calls for Cc1ccc(S(=O)(=O)N(CC(O)CN2C(=O)NC(C)(C)C2=O)c2cc(Cl)ccc2Cl)cc1 (centres unmarked) are PreQ1: no hit; TPP: no hit; SAM-II: no hit.
Calls for Cc1ccc([C@H]2CN(C(=O)CN3CCOC3=O)C[C@@H]2N)o1 are PreQ1: no hit; TPP: no hit; SAM-II: no hit.
Calls for CCn1cncc1CNc1nc(-c2ccncc2)nc2c1CCNC2 are PreQ1: no hit; TPP: no hit; SAM-II: no hit.
Calls for COc1ccc(CCNc2nc(-c3ccc(F)cc3)cs2)cc1OC are PreQ1: no hit; TPP: no hit; SAM-II: no hit.
Calls for NC(=O)Cc1nc(-c2cc(N3CCCCC3)ccc2Cl)n(CCO)n1 are PreQ1: no hit; TPP: no hit; SAM-II: no hit.
Calls for Nc1nc2c(-c3ccccc3)cccc2s1 are PreQ1: no hit; TPP: no hit; SAM-II: no hit.
Calls for COC1OC2COC(c3ccccc3)OC2C(=O)C1NC(=O)c1ccccc1 (centres unmarked) are PreQ1: no hit; TPP: no hit; SAM-II: no hit.
Calls for CCC(O)c1nc2ccccc2n1CCCCOc1ccccc1C (centres unmarked) are PreQ1: no hit; TPP: no hit; SAM-II: no hit.
Calls for Clc1cccc(NCc2ccco2)c1 are PreQ1: no hit; TPP: no hit; SAM-II: no hit.
Calls for Cc1c(-c2ccccc2)nc2c(c(C)c(C)n2CCN(C)C)c1N are PreQ1: no hit; TPP: no hit; SAM-II: no hit.
Calls for Cc1cc(I)ccc1NCC(=O)NN are PreQ1: hit; TPP: no hit; SAM-II: hit.
Calls for COc1ccc(CNc2sc3c(c2C(N)=O)CCCC3)cc1OC are PreQ1: no hit; TPP: no hit; SAM-II: no hit.
Calls for NC1=C(c2nc3ccccc3[nH]2)C(=O)CN1C1CCCCCC1 are PreQ1: no hit; TPP: no hit.
Calls for CCc1ccc(-c2c(C#N)c(N)nc3c2CCCC3)s1 are PreQ1: no hit; TPP: no hit; SAM-II: no hit.
Calls for Cc1ccsc1CNC(C)(C)CO are PreQ1: no hit; TPP: no hit; SAM-II: no hit.
Calls for N#CC1=C(N)Oc2n[nH]c(-c3ccccc3)c2C12C(=O)Nc1ccccc12 (centres unmarked) are PreQ1: no hit; TPP: no hit; SAM-II: no hit.
Calls for Cc1ccc(F)c(NC2OC(=O)c3ccccc32)c1 (centres unmarked) are PreQ1: no hit; TPP: no hit; SAM-II: no hit.
Calls for CCNC(=O)c1nn(-c2ccccc2F)nc1CO are PreQ1: no hit; TPP: no hit.
Calls for COCc1nc2ccccc2n1CC(O)COc1cc(C)cc(C)c1 (centres unmarked) are PreQ1: no hit; TPP: no hit.
Calls for Fc1cccc(Nc2ncnc3c2oc2ccccc23)c1 are PreQ1: no hit; TPP: no hit; SAM-II: no hit.
Calls for CCc1nnc(CNc2nc(N)nc(CC)c2C)o1 are PreQ1: no hit; TPP: no hit; SAM-II: no hit.
Calls for O=C1Nc2ccc(Br)cc2C1Cc1nc2ccccc2c(=O)n1CCCO (centres unmarked) are PreQ1: no hit; TPP: no hit.
Calls for Cc1nnsc1C(=O)NCc1c(F)cccc1Cl are PreQ1: no hit; TPP: no hit; SAM-II: no hit.
Calls for CCOC(=O)c1c(C)oc2ncnc(Nc3cccc(C(F)(F)F)c3)c12 are PreQ1: no hit; TPP: no hit; SAM-II: no hit.

Some entries from above, unchanged:

compound	PreQ1	TPP	SAM-II
Cc1ccc2cc(C3(O)CCN(C(=O)c4sccc4N)CC3)ccc2n1	no hit	no hit	no hit
Cc1nnsc1C(=O)NCc1c(F)cccc1Cl	no hit	no hit	no hit
COC1OC2COC(c3ccccc3)OC2C(=O)C1NC(=O)c1ccccc1 (centres unmarked)	no hit	no hit	no hit